The record followed here is the supplement of paper PMC12819154, “High-throughput peptide-centric local stability assay extends protein–ligand identification to membrane proteins, tissues and bacteria” (Nature Structural & Molecular Biology, 2025).

Sequences of proteins named here, by UniProt entry; tags and fusion partners are left off. A change or cut given only in a name is not applied to a line headed by its entry.
UniProt Q99584: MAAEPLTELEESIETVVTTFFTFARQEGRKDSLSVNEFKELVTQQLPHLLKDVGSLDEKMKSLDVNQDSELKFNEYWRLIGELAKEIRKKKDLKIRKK
UniProt Q99612: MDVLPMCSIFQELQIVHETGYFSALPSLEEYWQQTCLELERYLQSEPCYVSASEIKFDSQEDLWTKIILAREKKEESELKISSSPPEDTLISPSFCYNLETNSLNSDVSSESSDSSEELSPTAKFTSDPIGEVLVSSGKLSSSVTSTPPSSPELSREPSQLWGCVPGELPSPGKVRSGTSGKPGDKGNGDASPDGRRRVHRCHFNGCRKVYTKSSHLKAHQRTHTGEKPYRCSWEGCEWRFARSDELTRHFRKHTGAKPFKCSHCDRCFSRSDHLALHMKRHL
UniProt Q96TA1: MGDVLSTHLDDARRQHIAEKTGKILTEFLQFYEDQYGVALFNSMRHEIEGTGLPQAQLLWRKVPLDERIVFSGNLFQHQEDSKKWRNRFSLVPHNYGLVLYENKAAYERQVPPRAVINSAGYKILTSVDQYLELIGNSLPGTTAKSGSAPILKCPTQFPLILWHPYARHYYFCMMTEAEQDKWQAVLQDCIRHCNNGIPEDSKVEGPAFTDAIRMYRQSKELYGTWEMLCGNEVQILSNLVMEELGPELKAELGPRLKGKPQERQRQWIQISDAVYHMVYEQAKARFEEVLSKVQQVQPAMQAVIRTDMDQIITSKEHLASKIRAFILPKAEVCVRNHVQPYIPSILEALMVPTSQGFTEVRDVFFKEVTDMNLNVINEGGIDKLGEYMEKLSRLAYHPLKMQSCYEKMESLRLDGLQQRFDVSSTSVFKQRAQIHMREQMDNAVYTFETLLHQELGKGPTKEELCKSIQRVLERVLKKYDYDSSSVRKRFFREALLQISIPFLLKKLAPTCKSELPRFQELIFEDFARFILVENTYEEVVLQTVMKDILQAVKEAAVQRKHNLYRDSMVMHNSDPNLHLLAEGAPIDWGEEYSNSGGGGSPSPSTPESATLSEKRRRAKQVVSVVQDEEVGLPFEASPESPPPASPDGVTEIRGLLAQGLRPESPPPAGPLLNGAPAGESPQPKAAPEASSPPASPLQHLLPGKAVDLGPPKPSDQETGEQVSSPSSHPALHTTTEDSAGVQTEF
UniProt Q96SI1: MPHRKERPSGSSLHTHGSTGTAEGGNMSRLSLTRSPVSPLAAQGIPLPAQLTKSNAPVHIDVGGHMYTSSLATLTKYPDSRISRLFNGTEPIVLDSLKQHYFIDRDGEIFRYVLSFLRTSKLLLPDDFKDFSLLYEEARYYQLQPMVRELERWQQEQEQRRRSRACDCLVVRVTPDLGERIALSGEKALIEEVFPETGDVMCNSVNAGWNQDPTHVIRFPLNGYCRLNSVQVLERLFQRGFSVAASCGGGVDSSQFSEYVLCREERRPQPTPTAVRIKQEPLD
UniProt Q9BUK6: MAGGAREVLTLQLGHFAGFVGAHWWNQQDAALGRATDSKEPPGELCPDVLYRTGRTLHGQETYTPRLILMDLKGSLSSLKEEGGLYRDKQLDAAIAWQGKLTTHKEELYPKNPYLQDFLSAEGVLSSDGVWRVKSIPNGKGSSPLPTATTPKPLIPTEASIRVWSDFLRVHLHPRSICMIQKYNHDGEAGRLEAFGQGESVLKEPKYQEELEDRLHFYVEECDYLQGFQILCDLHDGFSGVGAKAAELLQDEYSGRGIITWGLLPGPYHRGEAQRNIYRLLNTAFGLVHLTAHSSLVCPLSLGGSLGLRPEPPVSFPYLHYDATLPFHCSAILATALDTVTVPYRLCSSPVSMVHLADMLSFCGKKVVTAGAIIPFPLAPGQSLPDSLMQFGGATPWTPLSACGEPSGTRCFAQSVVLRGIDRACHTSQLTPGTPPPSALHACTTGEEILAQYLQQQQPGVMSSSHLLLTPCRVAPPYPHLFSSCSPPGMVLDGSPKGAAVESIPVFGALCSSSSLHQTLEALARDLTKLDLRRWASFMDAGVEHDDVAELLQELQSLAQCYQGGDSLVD
UniProt Q9BQS8: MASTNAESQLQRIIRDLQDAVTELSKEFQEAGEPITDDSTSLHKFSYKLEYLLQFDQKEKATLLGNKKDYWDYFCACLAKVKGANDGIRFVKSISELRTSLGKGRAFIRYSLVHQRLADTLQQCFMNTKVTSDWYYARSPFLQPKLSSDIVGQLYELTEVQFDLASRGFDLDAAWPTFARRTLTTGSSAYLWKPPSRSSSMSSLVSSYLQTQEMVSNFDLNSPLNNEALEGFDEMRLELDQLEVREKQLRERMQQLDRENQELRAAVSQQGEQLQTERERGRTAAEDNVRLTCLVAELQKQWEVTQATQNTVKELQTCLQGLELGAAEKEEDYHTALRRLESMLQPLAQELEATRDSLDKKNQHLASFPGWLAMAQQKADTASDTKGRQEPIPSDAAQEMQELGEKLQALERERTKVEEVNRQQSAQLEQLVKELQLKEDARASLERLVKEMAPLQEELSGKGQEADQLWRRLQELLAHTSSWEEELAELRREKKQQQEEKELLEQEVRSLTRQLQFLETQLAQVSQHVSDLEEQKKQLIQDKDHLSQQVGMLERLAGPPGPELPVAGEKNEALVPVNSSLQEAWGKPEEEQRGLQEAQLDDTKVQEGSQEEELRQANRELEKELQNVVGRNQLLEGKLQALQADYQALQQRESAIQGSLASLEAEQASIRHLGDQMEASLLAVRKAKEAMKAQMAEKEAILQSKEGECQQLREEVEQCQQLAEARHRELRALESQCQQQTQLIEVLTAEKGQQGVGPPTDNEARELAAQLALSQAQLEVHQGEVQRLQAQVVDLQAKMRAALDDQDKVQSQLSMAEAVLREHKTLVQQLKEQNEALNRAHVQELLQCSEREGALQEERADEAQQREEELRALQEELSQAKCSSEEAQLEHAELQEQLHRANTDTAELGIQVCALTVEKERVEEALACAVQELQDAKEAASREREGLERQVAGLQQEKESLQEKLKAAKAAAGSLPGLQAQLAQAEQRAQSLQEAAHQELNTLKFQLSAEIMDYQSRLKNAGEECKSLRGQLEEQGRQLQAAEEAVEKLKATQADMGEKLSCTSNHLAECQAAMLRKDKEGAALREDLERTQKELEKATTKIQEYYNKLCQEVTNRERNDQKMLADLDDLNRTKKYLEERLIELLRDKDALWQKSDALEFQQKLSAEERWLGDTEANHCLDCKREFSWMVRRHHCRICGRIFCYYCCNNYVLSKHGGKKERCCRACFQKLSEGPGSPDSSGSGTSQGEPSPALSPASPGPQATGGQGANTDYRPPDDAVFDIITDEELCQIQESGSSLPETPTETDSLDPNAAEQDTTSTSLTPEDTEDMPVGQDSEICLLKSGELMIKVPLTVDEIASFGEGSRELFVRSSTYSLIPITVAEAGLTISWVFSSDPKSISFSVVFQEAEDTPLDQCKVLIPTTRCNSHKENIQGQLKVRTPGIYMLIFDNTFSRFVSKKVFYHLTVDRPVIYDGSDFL
UniProt Q9BTW9: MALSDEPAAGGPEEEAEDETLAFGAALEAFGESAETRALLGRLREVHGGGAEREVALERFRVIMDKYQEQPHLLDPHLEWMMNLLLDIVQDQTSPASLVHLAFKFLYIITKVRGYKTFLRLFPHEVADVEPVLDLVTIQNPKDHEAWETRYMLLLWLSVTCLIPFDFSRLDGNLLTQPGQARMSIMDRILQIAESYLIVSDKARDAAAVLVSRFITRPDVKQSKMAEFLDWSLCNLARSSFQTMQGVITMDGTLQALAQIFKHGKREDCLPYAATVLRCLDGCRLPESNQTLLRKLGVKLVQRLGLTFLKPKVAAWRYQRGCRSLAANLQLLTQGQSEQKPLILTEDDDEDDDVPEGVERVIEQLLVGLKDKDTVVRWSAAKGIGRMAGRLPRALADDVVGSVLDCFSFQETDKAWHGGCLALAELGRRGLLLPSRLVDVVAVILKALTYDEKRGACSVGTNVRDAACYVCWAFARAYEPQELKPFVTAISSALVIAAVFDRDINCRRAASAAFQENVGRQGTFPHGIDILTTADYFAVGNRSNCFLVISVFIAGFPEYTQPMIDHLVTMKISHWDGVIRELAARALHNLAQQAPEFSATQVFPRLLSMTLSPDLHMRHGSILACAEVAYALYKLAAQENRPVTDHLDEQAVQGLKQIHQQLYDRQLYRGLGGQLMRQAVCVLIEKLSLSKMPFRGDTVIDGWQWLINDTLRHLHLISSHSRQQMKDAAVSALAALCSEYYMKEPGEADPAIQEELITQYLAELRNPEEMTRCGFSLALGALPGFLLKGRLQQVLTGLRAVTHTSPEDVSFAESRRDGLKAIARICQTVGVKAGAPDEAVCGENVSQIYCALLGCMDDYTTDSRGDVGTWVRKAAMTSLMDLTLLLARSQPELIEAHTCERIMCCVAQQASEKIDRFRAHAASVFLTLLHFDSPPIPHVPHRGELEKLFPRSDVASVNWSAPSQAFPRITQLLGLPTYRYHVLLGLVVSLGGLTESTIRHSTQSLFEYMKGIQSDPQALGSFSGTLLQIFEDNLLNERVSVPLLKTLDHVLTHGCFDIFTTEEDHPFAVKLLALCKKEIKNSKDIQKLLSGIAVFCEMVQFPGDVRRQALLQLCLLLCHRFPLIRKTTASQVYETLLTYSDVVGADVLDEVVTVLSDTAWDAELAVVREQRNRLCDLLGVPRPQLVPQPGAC
UniProt Q9BQ75: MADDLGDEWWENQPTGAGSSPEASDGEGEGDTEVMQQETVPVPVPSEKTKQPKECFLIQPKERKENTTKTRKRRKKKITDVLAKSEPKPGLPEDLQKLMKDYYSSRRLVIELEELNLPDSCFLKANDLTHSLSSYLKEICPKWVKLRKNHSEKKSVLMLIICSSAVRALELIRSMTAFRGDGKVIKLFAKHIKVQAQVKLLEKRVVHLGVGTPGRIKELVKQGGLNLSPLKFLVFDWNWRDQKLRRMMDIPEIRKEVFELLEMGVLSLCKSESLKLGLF
UniProt Q9BRA0: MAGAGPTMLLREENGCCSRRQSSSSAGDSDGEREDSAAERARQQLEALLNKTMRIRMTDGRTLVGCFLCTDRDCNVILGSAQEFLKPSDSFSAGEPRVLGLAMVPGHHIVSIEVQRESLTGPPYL
UniProt Q9BR76, whole entry: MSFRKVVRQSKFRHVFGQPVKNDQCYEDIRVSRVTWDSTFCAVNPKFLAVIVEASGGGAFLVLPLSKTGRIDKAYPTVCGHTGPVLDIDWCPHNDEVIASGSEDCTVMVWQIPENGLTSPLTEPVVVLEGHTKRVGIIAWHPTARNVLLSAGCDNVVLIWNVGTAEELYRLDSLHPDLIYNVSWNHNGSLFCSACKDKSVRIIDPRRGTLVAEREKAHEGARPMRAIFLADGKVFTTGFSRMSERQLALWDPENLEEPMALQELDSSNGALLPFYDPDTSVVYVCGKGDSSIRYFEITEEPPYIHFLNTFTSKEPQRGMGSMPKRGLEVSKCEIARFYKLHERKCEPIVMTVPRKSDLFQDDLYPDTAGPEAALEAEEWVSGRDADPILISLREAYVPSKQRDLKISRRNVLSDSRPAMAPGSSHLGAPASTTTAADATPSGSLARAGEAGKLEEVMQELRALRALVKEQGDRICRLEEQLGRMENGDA
UniProt Q99417: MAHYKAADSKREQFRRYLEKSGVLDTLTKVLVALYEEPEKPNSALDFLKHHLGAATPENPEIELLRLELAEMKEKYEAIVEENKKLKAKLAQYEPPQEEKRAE
UniProt Q96T66: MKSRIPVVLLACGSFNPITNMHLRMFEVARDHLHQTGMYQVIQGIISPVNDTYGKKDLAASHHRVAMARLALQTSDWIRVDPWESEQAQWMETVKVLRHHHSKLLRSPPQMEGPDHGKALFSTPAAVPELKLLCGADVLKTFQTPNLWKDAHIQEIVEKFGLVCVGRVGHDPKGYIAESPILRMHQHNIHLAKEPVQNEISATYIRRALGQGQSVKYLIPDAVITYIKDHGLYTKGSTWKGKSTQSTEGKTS
UniProt Q9BTA9: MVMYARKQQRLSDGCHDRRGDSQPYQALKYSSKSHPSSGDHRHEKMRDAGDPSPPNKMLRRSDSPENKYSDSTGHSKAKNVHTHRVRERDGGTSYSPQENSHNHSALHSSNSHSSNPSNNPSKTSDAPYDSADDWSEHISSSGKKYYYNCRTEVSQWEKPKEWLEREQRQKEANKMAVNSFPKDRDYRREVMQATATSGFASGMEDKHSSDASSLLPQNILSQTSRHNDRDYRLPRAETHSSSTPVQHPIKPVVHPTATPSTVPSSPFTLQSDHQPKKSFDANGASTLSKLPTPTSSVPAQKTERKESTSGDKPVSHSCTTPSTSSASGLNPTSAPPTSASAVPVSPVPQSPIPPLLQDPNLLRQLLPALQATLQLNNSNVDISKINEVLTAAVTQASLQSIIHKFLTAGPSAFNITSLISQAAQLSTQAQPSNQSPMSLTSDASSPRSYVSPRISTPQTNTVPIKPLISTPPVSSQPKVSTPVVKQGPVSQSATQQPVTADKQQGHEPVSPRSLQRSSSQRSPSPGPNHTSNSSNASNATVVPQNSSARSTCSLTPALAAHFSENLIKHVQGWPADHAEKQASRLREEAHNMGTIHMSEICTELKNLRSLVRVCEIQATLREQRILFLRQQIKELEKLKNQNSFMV

This is one part of the list. Most values lie at the level of the controls, where differences are scatter.

Compound in the assay: Cc1nc(Nc2ncc(C(=O)Nc3c(C)cccc3Cl)s2)cc(N2CCN(CCO)CC2)n1 [dasatinib]
The assay can be described thus: log2 fold change of tryptic peptide abundance, ligand vs vehicle (limited proteolysis) (log2 ratio); higher = more trypsin-susceptible (destabilized). The following applies: ligand concentration: 5 uM; sample: K562 cleared lysate.
Consider “DNAJC7 (peptide sequence: FREALGDAQQSVR, peptide start residue: 78) (UniProt Q99615)”, for which the log2 fold change was -0.21.

“TP53RK (peptide sequence: FLSGLELVK, peptide start residue: 32) (UniProt Q96S44)”: the log2 fold change is -0.0409.

With “S100A13 (peptide sequence: SLDVNQDSELK, peptide start residue: 62) (UniProt Q99584)”, the log2 fold change came out at 0.089.

Take “TUBA1C (peptide sequence: AVCMLSNTTAVAEAWAR, peptide start residue: 374) (UniProt Q9BQE3)”: the log2 fold change is -0.056.

As to “UniProt Q9BSB4 (peptide sequence: RLIKDTLAL, peptide start residue: 210)”, the log2 fold change was -0.946.

For “UniProt Q99612 (peptide sequence: SDHLALHMK, peptide start residue: 351)”, the log2 fold change worked out at 0.24.

Take “UniProt Q96TA1 (peptide sequence: AAPEASSPPASPLQHLLPGK, peptide start residue: 686)”: the log2 fold change was -0.122.

With “KCTD15 (peptide sequence: YYQLQPMVR, peptide start residue: 140) (UniProt Q96SI1)”, the log2 fold change turned out to be 0.349.

For the target “MSTO1 (peptide sequence: LTTHKEELYPK, peptide start residue: 101) (UniProt Q9BUK6)”, the log2 fold change is -0.0798.

For “PI4K2A (peptide sequence: LALEKVPK, peptide start residue: 236) (UniProt Q9BTU6)”, the log2 fold change was -0.0258.

As for “UniProt Q99501 (peptide sequence: RPSGPAELGTWHALHSVTPR, peptide start residue: 655)”, the log2 fold change was determined as 0.326.

Regarding “FYCO1 (peptide sequence: TLTTGSSAYLWKPPSR, peptide start residue: 182) (UniProt Q9BQS8)”, the log2 fold change was determined as 0.385.

Turning to “TBCD (peptide sequence: GDVGTWVR, peptide start residue: 865) (UniProt Q9BTW9)”, the log2 fold change was -0.421.

For the target “CCNL2 (peptide sequence: GSKPSPLSVK, peptide start residue: 344) (UniProt Q96S94)”, the log2 fold change was determined as 0.367.

Regarding “UniProt Q9BQ75 (peptide sequence: VVHLGVGTPGR, peptide start residue: 205)”, the log2 fold change is -0.383.

Consider “DUSP9 (peptide sequence: LHLSLNDAYDLVKR, peptide start residue: 309) (UniProt Q99956)”, for which the log2 fold change was 0.524.

Regarding “CPNE1 (peptide sequence: VVTMEVEAR, peptide start residue: 139) (UniProt Q99829)”, the log2 fold change amounted to 0.24.

In the case of “UniProt Q9BRA0 (peptide sequence: VLGLAMVPGHHIVSIEVQR, peptide start residue: 98)”, the log2 fold change was -0.269.

For the target “CORO1B (peptide sequence: HVFGQPVKNDQCYEDIR, peptide start residue: 14) (UniProt Q9BR76)”, the log2 fold change was -0.8.

As for “KIF2C (peptide sequence: LFDLLNKK, peptide start residue: 409) (UniProt Q99661)”, the log2 fold change was -0.185.

“PIP5K1A (peptide sequence: FMCNTVFK, peptide start residue: 444) (UniProt Q99755)”: the log2 fold change came to 0.244.

On to “PTPN18 (peptide sequence: SAEEAPLYSK, peptide start residue: 382) (UniProt Q99952)”, for which the log2 fold change is 0.186.

Take “MYCBP (peptide sequence: LAQYEPPQEEKR, peptide start residue: 90) (UniProt Q99417)”: the log2 fold change came to 0.701.

Take “CNPY3 (peptide sequence: ASPLTHSPPDEL, peptide start residue: 267) (UniProt Q9BT09)”: the log2 fold change was -0.146.

Turning to “HAUS7 (peptide sequence: MNELMEK, peptide start residue: 352) (UniProt Q99871)”, the log2 fold change was 0.1.

“POLR3GL (peptide sequence: QLPYFIRPAVPK, peptide start residue: 73) (UniProt Q9BT43)”: the log2 fold change is -0.235.

In the case of “NMNAT3 (peptide sequence: FGLVCVGR, peptide start residue: 160) (UniProt Q96T66)”, the log2 fold change was 0.324.

On to “UniProt Q96SY0 (peptide sequence: HSLATQNQR, peptide start residue: 128)”, for which the log2 fold change was -0.0254.

With “WAC (peptide sequence: TEVSQWEKPK, peptide start residue: 152) (UniProt Q9BTA9)”, the log2 fold change came to 0.678.
